In the RNAGym collection of RNA variant scans (doi:10.1126/science.aae0568):
This sample is rich in variants without activity.

B1: tRNA (parent)
chain: GUUCCGUUGGCGUAAUGGUAACGCGUCUCCCUCCUAAGGAGAAGACUGCGGGUUCGAGUCCCGUACGGAACG

Variants of: B1
Experiment: yeast fitness relative to wild type (ratio to wild type); higher = fitter; tRNA-Arg(CCU), competitive growth, 37 C, YPD
In short: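 A pool of Saccharomyces cerevisiae strains, each with a tRNA-Arg(CCU) gene variant at the native genomic locus, was competed in YPD at 37°C for 24 hours across six parallel replicates. The variants had been chemically synthesised at a 3% per-site mutation rate over 69 sites, and gene amplicons before and after competition were read by 100-nucleotide paired-end sequencing. Darwinian fitness relative to wild type rested on changes in genotype frequencies. Genotypes required ≥ 100 starting reads, and estimates < 0.5 were set to 0.5.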

| Variant | yeast fitness |
| --- | --- |
| C30U A40C A42C C49U G68U | ≤ 0.5 |
| C5A G51C G63C A65C | ≤ 0.5 |
| G10A G17C C30G C33G A45U G52A A70U | ≤ 0.5 |
| C5U A20G C31U G52C | ≤ 0.5 |
| C33U A37G A42C A65C A69C | ≤ 0.5 |
| C5G A45C A57U | ≤ 0.5 |
| U47G G51C | ≤ 0.5 |
| A14C A57U C61U | ≤ 0.5 |
| C24G C27U C34U C55G C62A G68A | ≤ 0.5 |
| C11U G50A C62U G63A A65U | ≤ 0.5 |
| A37U G51C G52A | ≤ 0.5 |
| C31U C34U G58C C60U C62U G63C | ≤ 0.5 |
| C11G U53A C60U | ≤ 0.5 |
| C5G G41A U64G A69C | ≤ 0.5 |
| A21U C30G U32C U64C | ≤ 0.5 |
| U19G C22U A37G C66U A69U | 0.61 |
| G18A A20U C27G G48A | ≤ 0.5 |
| C5U C22G A45U C55A | ≤ 0.5 |
| G12C G18C U35A G39A U53A | ≤ 0.5 |
| A20U A37G C66A | ≤ 0.5 |
| U16A A21C U53A | ≤ 0.5 |

| Variant | yeast fitness |
| --- | --- |
| A20C C46A C49G G63A | ≤ 0.5 |
| A36C A37C G68U | ≤ 0.5 |
| U7A C60G A70C | ≤ 0.5 |
| A21U C31U G41A A42C U54G | ≤ 0.5 |
| A14C A42U C55G U59A | 0.612 |
| C24A G25A C49U C62A | ≤ 0.5 |
| C27G A65U G68U A69G | ≤ 0.5 |
| G23A C61A C62U A65U A69C | ≤ 0.5 |
| G18C C34U A69C | ≤ 0.5 |
| G17A C33G A36G G63A | ≤ 0.5 |
| G23A C49U G58A | ≤ 0.5 |
| U3A C33G A43G G58A G67A A69U | ≤ 0.5 |
| C34U C46A C55U | ≤ 0.5 |
| C33U A40U G56C | ≤ 0.5 |
| A15U G39C U47C | ≤ 0.5 |
| A21G A43U C49U U53C C61G | ≤ 0.5 |
| U32C G68C A70U | ≤ 0.5 |
| G9A C11G C55G G63C G67C | 0.578 |
| C24G U35C A45C C60A G68U | ≤ 0.5 |
| C4A C31U G44A A45U | 0.574 |
| G25C A42G A69C A70G | ≤ 0.5 |

| Variant | yeast fitness |
| --- | --- |
| G18A A43C C46A G48C | ≤ 0.5 |
| G25C C66U A69C | 0.685 |
| C4U C22G U28A A36U C55G C62U | ≤ 0.5 |
| C24G G25A C60G | ≤ 0.5 |
| U2C A43C A57C | ≤ 0.5 |
| U2G C11A C30A A57U | ≤ 0.5 |
| G6C C11G C27U G58C U64G | ≤ 0.5 |
| A14G G18A U26A G50A | ≤ 0.5 |
| G17A U28C A42C C62U A70U | ≤ 0.5 |
| G6C G17A A36U C46A C66A | 0.512 |
| A45U A57U U59G U64G | ≤ 0.5 |
| U26G A37U A45U G51A | ≤ 0.5 |
| C24A C27G C29A A70G | ≤ 0.5 |
| U13C A57U C61U | ≤ 0.5 |
| G10A G17C C30G C33G U53C A57C | ≤ 0.5 |
| U13C G18U C22A C33A | ≤ 0.5 |
| U54C C55A C62G A69G | ≤ 0.5 |
| G50C G51A G63C | ≤ 0.5 |
| C5G C11U G25C G52U | 0.618 |
| G17C U19A C24G U26A C34U | ≤ 0.5 |
| C4A C5U C11G C31U G38C G52A C66G | ≤ 0.5 |

| Variant | yeast fitness |
| --- | --- |
| U2G C4A U16C C61G | 0.571 |
| C11A G23C A65U G68A | ≤ 0.5 |
| A57C C66G | ≤ 0.5 |
| G18A G44C C66A | ≤ 0.5 |
| A14U U59C A70C | ≤ 0.5 |
| A42C U47A C49A G51U | ≤ 0.5 |
| C11G A20U G25A C49A C55U | ≤ 0.5 |
| G10A G50C U54C | ≤ 0.5 |
| A14C A20U A21U U26A C61U | ≤ 0.5 |
| U19C A45G C62U | 0.953 |
| U19C C60G C66G A69G | ≤ 0.5 |
| U8C C30G C31G U54C A65C | ≤ 0.5 |
| A15U C24A A36G A37U A65U | ≤ 0.5 |
| C11U C33U G48A | 0.58 |
| U26C C29U U35C G63A | ≤ 0.5 |
| U8C A15U C22U A40C G48C U54C C62U | 0.557 |
| G52C G56C | ≤ 0.5 |
| U8G G17A U28A | ≤ 0.5 |
| C11U A20G C24U C61U U64C | ≤ 0.5 |
| U7A G39C A43C G44C U47C C62U | ≤ 0.5 |
| C27G C30U C66G | ≤ 0.5 |
